This is an account of results in article PMC12377093.

By UniProt entry, the sequences of proteins in these tests, tags left out.
UniProt B8XX90: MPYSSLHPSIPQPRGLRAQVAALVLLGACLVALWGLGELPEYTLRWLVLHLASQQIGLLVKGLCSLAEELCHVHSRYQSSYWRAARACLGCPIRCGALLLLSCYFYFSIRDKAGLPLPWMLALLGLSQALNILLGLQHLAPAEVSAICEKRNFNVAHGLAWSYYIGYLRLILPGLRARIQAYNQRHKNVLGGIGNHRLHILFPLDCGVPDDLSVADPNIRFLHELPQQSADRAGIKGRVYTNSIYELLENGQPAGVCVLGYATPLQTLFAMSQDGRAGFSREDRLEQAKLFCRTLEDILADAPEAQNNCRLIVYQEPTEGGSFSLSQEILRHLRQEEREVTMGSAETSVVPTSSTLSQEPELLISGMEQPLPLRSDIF
UniProt M9MMN5: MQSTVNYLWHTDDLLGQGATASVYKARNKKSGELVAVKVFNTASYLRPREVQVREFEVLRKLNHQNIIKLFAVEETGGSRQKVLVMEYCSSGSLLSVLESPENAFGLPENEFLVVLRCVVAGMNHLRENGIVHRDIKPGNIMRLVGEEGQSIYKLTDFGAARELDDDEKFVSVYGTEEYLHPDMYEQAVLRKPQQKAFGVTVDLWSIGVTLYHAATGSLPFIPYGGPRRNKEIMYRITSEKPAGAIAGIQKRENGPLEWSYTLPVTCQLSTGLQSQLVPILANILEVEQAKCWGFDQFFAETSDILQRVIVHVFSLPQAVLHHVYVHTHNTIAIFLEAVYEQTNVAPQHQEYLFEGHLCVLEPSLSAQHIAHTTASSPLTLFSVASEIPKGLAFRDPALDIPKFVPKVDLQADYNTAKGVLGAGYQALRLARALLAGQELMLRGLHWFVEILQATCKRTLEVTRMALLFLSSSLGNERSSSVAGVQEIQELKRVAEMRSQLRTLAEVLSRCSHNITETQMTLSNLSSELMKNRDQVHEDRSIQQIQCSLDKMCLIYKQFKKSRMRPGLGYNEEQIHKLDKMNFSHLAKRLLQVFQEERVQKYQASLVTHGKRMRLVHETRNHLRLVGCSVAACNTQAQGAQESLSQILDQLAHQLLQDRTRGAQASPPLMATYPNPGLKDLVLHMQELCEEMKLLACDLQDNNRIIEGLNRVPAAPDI

Results are given in words; binding and its absence hold for the method and conditions named. In cells and extracts the contact can be indirect. Some binding calls cover weakened binding; strength is not graded here. For part of these data: Tags and fused reporters may be left off the sequences shown.

For test [1], the target named is mCherry-tagged porcine STING (pmCherry-C1-pSTING) (porcine) (UniProt B8XX90). The test can be described thus: co-IP.
Test [2] addresses porcine STING with HA tag (pcDNA-DEST-pSTING-2 HA) (porcine) (UniProt B8XX90). In words: co-IP; HEK-293T co-transfected with STING-HA and mCherry-TBK1, IKKε-myc or IRF3-Flag for 24 h (Figure 4A-C).
In test [3] the target is endogenous STING of 3D4/21 porcine alveolar macrophages (pig (endogenous in 3D4/21)) (UniProt B8XX90). In words: co-IP.
Test [4] has as its target porcine STING with HA tag (pcDNA-DEST-pSTING-2 HA) (porcine) (UniProt B8XX90). The test can be described thus: co-IP.

For “Myc-tagged porcine IKKε (pcDNA-Myc-IKKε) (from UniProt M9MMN5 1-718)”, the binding result in test [1] and in test [2] was “binds” throughout.

Take “endogenous IKKε of 3D4/21 porcine alveolar macrophages (from UniProt M9MMN5 1-718)”: in test [3], the binding entry is listed as “binds”.

B1: FLAG-tagged porcine IRF3 (p3×FLAG-CMV-7.1-pIRF3) (protein, UniProt Q764M6 1-419)
chain: MGTQKPRILPWLISQLNQGQLEGVAWLDEGHTRFRIPWKHGLRQDAQQEDFGIFQAWAEASGAYTPGKDKPDLPTWKRNFRSALNRKEALRLAEDHSKDPHDPHKIYEFVTSGVGDFPEPDTSLDLSGRYSTSDTHEDSLDKLLSGMDLASDAGPQSLTLALEQPPQLSLSPSVDAPASCPNLGVRENPLKQLLANDDEWEFQVTVFYRGCQVFQQTVCSPGGLRLVGSEAEDGTLAGQPVRLPDPAASLTDRGVADYVRRVLSCLGGGLALWRAGQWLWAQRLGHCHVYWAMGEELIPDSGHKPDGEVPKDREGGVFDLGPFIEDLIAFIEGSRRSPRYTLWFCMGQSWPQDEPWVKRLVMVKVVPMCLRALVDMARDGGASSLENTVDLHISNSHPLSLTSDQYKACLRDLVEDMDF
In the case of B1, the binding result in test [4] and in test [2] was “binds” throughout.

B2: endogenous IRF3 of 3D4/21 porcine alveolar macrophages (protein, UniProt Q764M6 1-419)
chain: B1 chain
As to B2, the binding entry in test [3] is recorded as “binds”.
